Assay results taken from PMC12447449.
These are yes or no findings as the source states them, for the method shown. In cells and extracts the contact can be indirect. A yes stands for co-enrichment or nearness to the bait. Other partners may have been found. Tags and fused reporters may be left off the sequences shown.

Protein sequences, listed by entry. Tags and fused reporters are not part of them.
UniProt Q86XN7: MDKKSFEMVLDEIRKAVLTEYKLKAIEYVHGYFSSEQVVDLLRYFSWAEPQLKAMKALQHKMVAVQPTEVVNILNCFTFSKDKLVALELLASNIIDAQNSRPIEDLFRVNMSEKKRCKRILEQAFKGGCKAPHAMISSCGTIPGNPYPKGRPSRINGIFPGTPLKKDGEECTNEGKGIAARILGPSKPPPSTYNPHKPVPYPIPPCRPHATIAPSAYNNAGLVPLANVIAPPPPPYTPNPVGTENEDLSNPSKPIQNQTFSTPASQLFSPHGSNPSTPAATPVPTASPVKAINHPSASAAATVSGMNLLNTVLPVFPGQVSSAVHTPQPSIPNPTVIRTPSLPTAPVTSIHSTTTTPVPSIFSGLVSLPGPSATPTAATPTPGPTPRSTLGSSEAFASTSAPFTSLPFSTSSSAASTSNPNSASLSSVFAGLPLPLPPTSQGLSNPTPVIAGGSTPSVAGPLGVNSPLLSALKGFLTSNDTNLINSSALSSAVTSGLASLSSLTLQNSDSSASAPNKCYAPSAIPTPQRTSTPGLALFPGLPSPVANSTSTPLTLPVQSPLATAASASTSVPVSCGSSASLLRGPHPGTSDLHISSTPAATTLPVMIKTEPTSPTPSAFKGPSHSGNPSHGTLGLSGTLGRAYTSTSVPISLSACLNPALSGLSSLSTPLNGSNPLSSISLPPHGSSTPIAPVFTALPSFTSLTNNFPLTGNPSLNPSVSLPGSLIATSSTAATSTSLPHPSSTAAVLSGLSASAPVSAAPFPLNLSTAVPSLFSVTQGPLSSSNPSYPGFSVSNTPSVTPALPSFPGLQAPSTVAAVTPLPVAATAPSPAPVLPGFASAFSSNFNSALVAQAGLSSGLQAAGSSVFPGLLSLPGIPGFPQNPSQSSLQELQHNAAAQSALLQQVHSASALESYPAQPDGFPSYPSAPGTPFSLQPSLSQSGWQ

B1: O-linked N-acetylglucosamine transferase (OGT) (enzyme, UniProt O15294 1-1046)
chain: MASSVGNVADSTEPTKRMLSFQGLAELAHREYQAGDFEAAERHCMQLWRQEPDNTGVLLLLSSIHFQCRRLDRSAHFSTLAIKQNPLLAEAYSNLGNVYKERGQLQEAIEHYRHALRLKPDFIDGYINLAAALVAAGDMEGAVQAYVSALQYNPDLYCVRSDLGNLLKALGRLEEAKACYLKAIETQPNFAVAWSNLGCVFNAQGEIWLAIHHFEKAVTLDPNFLDAYINLGNVLKEARIFDRAVAAYLRALSLSPNHAVVHGNLACVYYEQGLIDLAIDTYRRAIELQPHFPDAYCNLANALKEKGSVAEAEDCYNTALRLCPTHADSLNNLANIKREQGNIEEAVRLYRKALEVFPEFAAAHSNLASVLQQQGKLQEALMHYKEAIRISPTFADAYSNMGNTLKEMQDVQGALQCYTRAIQINPAFADAHSNLASIHKDSGNIPEAIASYRTALKLKPDFPDAYCNLAHCLQIVCDWTDYDERMKKLVSIVADQLEKNRLPSVHPHHSMLYPLSHGFRKAIAERHGNLCLDKINVLHKPPYEHPKDLKLSDGRLRVGYVSSDFGNHPTSHLMQSIPGMHNPDKFEVFCYALSPDDGTNFRVKVMAEANHFIDLSQIPCNGKAADRIHQDGIHILVNMNGYTKGARNELFALRPAPIQAMWLGYPGTSGALFMDYIITDQETSPAEVAEQYSEKLAYMPHTFFIGDHANMFPHLKKKAVIDFKSNGHIYDNRIVLNGIDLKAFLDSLPDVKIVKMKCPDGGDNADSSNTALNMPVIPMNTIAEAVIEMINRGQIQITINGFSISNGLATTQINNKAATGEEVPRTIIVTTRSQYGLPEDAIVYCNFNQLYKIDPSTLQMWANILKRVPNSVLWLLRFPAVGEPNIQQYAQNMGLPQNRIIFSPVAPKEEHVRRGQLADVCLDTPLCNGHTTGMDVLWAGTPMVTMPGETLASRVAASQLTCLGCLELIAKNRQEYEDIAVKLGTDLEYLKKVRGKVWKQRISSPLFNTKQYTMELERLYLQMWEHYAAGNKPDHMIKPVEVTESA
B2: PSPC1 (protein, UniProt Q8WXF1 1-523)
chain: MMLRGNLKQVRIEKNPARLRALESAVGESEPAAAAAMALALAGEPAPPAPAPPEDHPDEEMGFTIDIKSFLKPGEKTYTQRCRLFVGNLPTDITEEDFKRLFERYGEPSEVFINRDRGFGFIRLESRTLAEIAKAELDGTILKSRPLRIRFATHGAALTVKNLSPVVSNELLEQAFSQFGPVEKAVVVVDDRGRATGKGFVEFAAKPPARKALERCGDGAFLLTTTPRPVIVEPMEQFDDEDGLPEKLMQKTQQYHKEREQPPRFAQPGTFEFEYASRWKALDEMEKQQREQVDRNIREAKEKLEAEMEAARHEHQLMLMRQDLMRRQEELRRLEELRNQELQKRKQIQLRHEEEHRRREEEMIRHREQEELRRQQEGFKPNYMENREQEMRMGDMGPRGAINMGDAFSPAPAGNQGPPPMMGMNMNNRATIPGPPMGPGPAMGPEGAANMGTPMMPDNGAVHNDRFPQGPPSQMGSPMGSRTGSETPQAPMSGVGPVSGGPGGFGRGSQGGNFEGPNKRRRY
B3: NONO (protein, UniProt Q15233 1-471)
chain: MQSNKTFNLEKQNHTPRKHHQHHHQQQHHQQQQQQPPPPPIPANGQQASSQNEGLTIDLKNFRKPGEKTFTQRSRLFVGNLPPDITEEEMRKLFEKYGKAGEVFIHKDKGFGFIRLETRTLAEIAKVELDNMPLRGKQLRVRFACHSASLTVRNLPQYVSNELLEEAFSVFGQVERAVVIVDDRGRPSGKGIVEFSGKPAARKALDRCSEGSFLLTTFPRPVTVEPMDQLDDEEGLPEKLVIKNQQFHKEREQPPRFAQPGSFEYEYAMRWKALIEMEKQQQDQVDRNIKEAREKLEMEMEAARHEHQVMLMRQDLMRRQEELRRMEELHNQEVQKRKQLELRQEEERRRREEEMRRQQEEMMRRQQEGFKGTFPDAREQEIRMGQMAMGGAMGINNRGAMPPAPVPAGTPAPPGPATMMPDGTLGLTPPTTERFGQAATMEGIGAIGGTPPAFNRAAPGAEFAPNKRRRY

Target: FLAG-tagged full-length human TET2 (human) (UniProt Q6N021)
Test: affinity purification with mass spectrometry; FLAG M2 immunoprecipitation and mass spectrometry from K562 cells overexpressing FLAG-tagged full-length human TET2, compared to wild-type K562 control; n = 3 biological replicates

binding, binds:
Proline and serine rich 1 (PROSER1) (from UniProt Q86XN7 1-944)
B1
B2
B3
